The chains behind the UniProt entries cited, without tags or fusion partners.
UniProt O75592: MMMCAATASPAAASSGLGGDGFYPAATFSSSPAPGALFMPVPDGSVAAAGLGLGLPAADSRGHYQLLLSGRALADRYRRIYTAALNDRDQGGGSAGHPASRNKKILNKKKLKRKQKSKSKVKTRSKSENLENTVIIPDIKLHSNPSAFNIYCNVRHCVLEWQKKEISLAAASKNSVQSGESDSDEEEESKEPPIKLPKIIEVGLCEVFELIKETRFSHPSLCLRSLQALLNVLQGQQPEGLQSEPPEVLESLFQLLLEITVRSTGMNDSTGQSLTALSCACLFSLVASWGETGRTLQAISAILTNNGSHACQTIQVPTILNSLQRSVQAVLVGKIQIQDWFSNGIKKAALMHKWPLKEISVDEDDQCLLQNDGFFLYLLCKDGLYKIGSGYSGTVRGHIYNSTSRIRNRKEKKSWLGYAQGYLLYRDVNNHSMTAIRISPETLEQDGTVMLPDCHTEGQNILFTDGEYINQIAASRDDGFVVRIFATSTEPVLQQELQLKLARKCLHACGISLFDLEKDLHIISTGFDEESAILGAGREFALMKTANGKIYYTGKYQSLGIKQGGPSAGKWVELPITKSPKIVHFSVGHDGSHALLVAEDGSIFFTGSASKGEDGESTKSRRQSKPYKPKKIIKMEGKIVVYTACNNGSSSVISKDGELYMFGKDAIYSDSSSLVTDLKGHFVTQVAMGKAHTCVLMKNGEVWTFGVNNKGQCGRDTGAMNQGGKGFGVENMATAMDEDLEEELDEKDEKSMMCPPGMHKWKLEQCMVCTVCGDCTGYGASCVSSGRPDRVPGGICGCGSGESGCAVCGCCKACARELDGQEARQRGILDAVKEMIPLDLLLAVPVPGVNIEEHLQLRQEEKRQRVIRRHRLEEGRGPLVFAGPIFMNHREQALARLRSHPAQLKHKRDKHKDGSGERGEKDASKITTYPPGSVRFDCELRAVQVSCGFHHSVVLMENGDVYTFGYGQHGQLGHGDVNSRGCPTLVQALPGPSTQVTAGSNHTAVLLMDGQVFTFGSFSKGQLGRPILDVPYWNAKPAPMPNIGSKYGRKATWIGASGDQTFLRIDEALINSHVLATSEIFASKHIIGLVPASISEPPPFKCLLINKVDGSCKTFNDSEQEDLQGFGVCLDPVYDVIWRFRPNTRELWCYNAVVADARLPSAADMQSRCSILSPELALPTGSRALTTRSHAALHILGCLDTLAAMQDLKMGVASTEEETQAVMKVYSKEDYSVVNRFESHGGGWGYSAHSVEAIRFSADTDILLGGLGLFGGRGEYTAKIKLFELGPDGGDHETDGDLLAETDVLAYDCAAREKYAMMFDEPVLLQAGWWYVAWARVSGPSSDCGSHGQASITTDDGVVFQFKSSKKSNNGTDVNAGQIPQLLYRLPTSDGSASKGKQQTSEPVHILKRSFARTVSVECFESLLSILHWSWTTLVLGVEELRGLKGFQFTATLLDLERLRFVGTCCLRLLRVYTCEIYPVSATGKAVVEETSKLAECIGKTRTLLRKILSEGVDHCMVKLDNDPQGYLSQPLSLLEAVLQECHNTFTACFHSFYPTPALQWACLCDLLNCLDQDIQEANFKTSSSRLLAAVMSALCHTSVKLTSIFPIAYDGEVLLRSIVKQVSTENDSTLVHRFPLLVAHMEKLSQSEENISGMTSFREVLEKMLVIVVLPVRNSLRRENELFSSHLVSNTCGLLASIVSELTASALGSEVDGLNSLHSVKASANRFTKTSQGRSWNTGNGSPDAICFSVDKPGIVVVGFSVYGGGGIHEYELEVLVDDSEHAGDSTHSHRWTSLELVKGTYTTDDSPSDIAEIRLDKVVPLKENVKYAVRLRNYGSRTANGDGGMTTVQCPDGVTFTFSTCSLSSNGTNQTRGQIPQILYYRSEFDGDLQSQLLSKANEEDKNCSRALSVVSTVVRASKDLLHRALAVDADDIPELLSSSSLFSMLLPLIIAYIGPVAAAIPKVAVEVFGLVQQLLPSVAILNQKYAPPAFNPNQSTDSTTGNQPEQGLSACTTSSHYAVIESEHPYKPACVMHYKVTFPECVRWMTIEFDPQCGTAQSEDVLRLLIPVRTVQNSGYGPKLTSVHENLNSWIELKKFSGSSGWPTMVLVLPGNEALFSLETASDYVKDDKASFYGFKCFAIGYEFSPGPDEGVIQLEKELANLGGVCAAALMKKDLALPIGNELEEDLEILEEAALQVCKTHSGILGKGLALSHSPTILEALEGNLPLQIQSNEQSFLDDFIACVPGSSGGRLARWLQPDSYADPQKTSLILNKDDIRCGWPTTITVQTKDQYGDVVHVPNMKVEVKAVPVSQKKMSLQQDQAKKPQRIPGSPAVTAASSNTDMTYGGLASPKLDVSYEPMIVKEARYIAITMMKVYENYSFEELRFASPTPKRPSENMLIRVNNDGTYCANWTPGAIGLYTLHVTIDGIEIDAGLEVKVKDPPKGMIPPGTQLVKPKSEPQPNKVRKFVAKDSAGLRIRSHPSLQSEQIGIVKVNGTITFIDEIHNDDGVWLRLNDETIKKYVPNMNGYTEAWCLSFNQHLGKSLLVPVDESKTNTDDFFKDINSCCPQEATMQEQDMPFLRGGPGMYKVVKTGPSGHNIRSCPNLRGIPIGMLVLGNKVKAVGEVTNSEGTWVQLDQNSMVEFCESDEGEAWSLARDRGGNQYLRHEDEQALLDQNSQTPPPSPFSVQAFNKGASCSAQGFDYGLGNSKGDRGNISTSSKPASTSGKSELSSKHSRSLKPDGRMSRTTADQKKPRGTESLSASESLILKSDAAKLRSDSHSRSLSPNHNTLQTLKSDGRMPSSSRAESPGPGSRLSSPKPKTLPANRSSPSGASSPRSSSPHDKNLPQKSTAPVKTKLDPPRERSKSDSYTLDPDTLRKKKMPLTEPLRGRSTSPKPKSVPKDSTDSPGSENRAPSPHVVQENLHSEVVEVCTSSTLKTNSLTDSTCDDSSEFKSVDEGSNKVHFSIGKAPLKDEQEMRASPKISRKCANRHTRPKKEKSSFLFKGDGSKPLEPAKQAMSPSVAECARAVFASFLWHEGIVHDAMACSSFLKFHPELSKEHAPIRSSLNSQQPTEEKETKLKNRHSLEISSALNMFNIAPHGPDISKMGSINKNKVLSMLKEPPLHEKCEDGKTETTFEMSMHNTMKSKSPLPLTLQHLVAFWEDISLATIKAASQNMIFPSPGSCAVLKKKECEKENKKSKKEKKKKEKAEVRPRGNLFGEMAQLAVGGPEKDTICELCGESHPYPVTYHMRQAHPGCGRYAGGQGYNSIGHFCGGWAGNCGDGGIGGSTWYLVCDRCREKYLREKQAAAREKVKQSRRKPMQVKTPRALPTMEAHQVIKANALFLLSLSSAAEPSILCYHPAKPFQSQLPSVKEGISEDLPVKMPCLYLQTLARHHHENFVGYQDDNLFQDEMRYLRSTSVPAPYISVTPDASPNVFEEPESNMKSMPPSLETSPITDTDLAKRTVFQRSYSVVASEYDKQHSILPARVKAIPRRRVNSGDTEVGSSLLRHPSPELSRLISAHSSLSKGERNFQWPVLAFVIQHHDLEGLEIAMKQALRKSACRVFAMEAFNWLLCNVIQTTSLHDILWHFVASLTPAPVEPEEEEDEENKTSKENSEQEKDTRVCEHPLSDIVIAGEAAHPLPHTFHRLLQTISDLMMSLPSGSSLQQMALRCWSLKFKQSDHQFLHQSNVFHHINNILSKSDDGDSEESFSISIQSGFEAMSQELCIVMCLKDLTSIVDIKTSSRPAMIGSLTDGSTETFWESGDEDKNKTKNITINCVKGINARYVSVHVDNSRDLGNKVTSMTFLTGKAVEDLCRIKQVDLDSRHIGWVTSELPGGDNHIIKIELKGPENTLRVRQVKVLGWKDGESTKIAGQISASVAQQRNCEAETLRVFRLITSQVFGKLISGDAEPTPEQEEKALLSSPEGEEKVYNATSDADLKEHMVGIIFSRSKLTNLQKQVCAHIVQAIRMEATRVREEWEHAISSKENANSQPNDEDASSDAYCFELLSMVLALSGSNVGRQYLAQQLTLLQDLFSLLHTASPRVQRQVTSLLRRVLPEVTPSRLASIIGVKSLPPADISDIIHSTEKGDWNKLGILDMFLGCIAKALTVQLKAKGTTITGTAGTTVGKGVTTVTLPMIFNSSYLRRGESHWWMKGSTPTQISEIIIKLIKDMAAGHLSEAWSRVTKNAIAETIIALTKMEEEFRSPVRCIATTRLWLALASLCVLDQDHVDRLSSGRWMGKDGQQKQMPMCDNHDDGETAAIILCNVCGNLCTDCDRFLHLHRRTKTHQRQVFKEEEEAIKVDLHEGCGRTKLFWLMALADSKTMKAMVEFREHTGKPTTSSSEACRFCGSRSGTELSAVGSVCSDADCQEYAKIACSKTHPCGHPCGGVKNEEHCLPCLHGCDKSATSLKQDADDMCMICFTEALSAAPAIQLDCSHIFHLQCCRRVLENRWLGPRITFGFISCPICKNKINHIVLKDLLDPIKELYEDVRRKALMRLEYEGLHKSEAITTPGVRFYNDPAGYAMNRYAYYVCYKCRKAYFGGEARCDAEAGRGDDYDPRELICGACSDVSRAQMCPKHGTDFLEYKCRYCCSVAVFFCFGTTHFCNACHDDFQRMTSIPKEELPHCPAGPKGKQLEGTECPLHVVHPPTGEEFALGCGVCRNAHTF

According to article PMC9434705:

Target: T1, FLAG-MST2 (bait of the AP-MS experiment) (UniProt Q13188)
T1 sequence: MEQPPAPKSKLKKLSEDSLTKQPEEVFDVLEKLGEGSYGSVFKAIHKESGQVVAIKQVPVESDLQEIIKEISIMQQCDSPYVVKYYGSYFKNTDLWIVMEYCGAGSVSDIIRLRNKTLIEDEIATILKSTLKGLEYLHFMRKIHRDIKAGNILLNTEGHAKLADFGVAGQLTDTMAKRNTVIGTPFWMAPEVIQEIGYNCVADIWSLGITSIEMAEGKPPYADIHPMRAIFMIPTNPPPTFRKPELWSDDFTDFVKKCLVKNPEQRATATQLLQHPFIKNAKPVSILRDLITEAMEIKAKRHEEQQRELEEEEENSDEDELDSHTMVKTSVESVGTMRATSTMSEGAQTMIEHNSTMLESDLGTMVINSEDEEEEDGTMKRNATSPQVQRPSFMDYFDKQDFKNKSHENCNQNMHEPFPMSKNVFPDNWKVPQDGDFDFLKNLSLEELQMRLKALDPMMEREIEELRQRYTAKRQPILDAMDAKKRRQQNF
Assay: affinity purification with mass spectrometry; FLAG-MST2 AP-MS; interaction proteomic data set of the group, mined here

With “MYCBP2 (prey of the AP-MS experiment) (from UniProt O75592 1-4678)” the binding was “binds”.

Results are given in words; binding and its absence hold for the method and conditions named. In cells and extracts the contact can be indirect. A yes stands for co-enrichment or nearness to the bait. Other partners may have been found. Sequences can lack the tags named with a protein.
